According to patent publication US20160046678A1 (ZYNGENIA, published 2016):
No constants are given. Whether binding was seen depends on the method and setting. Some results given as binding are weak or reduced against the parent protein; the word gives no strength.

By UniProt entry, the sequences of proteins in these tests, tags left out. Residues count along the entry.
UniProt P21860, residues 20-643: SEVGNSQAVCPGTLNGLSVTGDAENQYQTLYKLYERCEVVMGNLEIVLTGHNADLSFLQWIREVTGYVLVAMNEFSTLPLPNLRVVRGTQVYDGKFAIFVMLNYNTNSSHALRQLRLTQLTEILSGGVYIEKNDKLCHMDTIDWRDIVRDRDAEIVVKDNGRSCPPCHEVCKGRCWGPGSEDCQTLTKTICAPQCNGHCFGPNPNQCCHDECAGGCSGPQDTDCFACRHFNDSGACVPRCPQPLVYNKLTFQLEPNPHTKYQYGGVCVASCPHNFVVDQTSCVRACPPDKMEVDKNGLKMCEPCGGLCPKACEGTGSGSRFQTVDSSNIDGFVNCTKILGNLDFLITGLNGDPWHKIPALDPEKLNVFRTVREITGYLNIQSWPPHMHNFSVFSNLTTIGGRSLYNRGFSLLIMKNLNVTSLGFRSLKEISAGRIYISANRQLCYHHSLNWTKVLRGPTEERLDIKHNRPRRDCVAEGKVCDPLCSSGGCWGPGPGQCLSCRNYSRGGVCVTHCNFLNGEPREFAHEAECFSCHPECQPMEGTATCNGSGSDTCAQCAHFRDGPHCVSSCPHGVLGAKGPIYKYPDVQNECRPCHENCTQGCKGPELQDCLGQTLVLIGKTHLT

B1: EGC649 (peptide)
peptide: YEEHCALFPTDWICTLH
B2: EGC638 (peptide)
peptide: PIDPYCPFLNPIWKEQCHARS
B3: EGC639 (peptide)
peptide: VREPYCPFLNPTWKNECIART
B4: EGC642 (peptide)
peptide: PKYYMCQIYPSLKWNVCLETL
B5: EGC640 (peptide)
peptide: LIEPYCPFLNPIWKDQCLART
B6: EGC675 (peptide)
peptide: KKFYMCQIYPSEKWHVCVERI
B7: EGC632 (peptide)
peptide: PREPYCPFLNPLWKNQCIERT
B8: EGC628 (peptide)
peptide: VSEPYCPFLNPTWKAHCIELS
B9: EGC652 (peptide)
peptide: DKFYLCQIYPSERWHVCVWSS
B10: EGC634 (peptide)
peptide: IRVPYCPFQNPTWYDQCIART
B11: EGC625 (peptide)
peptide: QHEPYCPFLNPVWKHECIART
B12: EGC667 (peptide)
peptide: NSEPYCPFHNPTWKAACMART
B13: EGC626 (peptide)
peptide: IREPYCPFLNPTWKAQCIART
B14: EGC654 (peptide)
peptide: HKFYMCQVYPSEKWHVCVETL
B15: EGC674 (peptide)
peptide: FNFFMCQVYPSEKWHICVKSL
B16: EGC629 (peptide)
peptide: SSDPYCPFLNPTWYDQCIERY
B17: EGC669 (peptide)
peptide: SREPYCPFLNPTWKEQCIARI
B18: EGC635 (peptide)
peptide: PDSWCHTLYWHLQHCLSQE
B19: EGC653 (peptide)
peptide: EKFKMCQIYPSKNWAVCVETF
B20: EGC664 (peptide)
peptide: SMFFMCQVYPSEKWHVCVYPL
B21: EGC668 (peptide)
peptide: RSEPYCPFLNPIWKEQCIART
B22: EGC651 (peptide)
peptide: FIEPYCPFINPTWKAECLART
B23: EGC671 (peptide)
peptide: MREPYCPFLNPSWKEQCIARS
B24: EGC672 (peptide)
peptide: LREPYCPFLNPVWKNECIART
B25: EGC658 (peptide)
peptide: RSEPYCPFVNPIWKAECIVRS
B26: EGC666 (peptide)
peptide: LKFYMCQVYPSGNWNVCTATQ
B27: EGC659 (peptide)
peptide: QFEPYCPFLNPTWKEQCIARI
B28: EGC655 (peptide)
peptide: LSEPYCPFLNPSWKAECIARS
B29: EGC661 (peptide)
peptide: YRQPYCPFLNPTWKAQCMART
B30: EGC665 (peptide)
peptide: SKFFMCQVYPSERWHVCIEPL
B31: EGC636 (peptide)
peptide: TNDPYCPFLNPTWKAECIARH
B32: EGC630 (peptide)
peptide: ISDPYCPFVNPYWKAECIART
B33: EGC663 (peptide)
peptide: DNFYMCQVYPSLKWHICVSIL
B34: EGC657 (peptide)
peptide: LSEPYCPFLNPTWKDQCIARS
B35: EGC656 (peptide)
peptide: LSEPYCPFLNPIWKEQCIARS
B36: EGC631 (peptide)
peptide: NIDPYCPFLNPTWKAECIARI
B37: EGC641 (peptide)
peptide: PKFFMCQVYPSGKWHVCTGTV
B38: EGC660 (peptide)
peptide: PIEPYCPFQNPTWKAQCIART
B39: EGC673 (peptide)
peptide: ITDTYCPFQNPIWKAECIART
B40: EGC646 (peptide)
peptide: RSEPYCPFLNPVWKDQCIARS
B41: EGC647 (peptide)
peptide: SSEPYCPFLNPIWKYHCIARS
B42: EGC644 (peptide)
peptide: LNFYICKLYPSANLHVCVDTL
B43: EGC648 (peptide)
peptide: PGSPYCPFLNPFWKEQCIVRT
B44: EGC637 (peptide)
peptide: VSEPYCPFLNPTWKAQCLNRI
B45: EGC627 (peptide)
peptide: HSAPYCPFLNPIWKDECIARS

target: ErbB3 (UniProt P21860); experiment: MRD screen, Example 48

binding, binds:
B1
B2
B3
B4
B5
B6
B7
B8
B9
B10
B11
B12
B13
B14
B15
B16
B17
B18
B19
B20
B21
B22
B23
B24
B25
B26
B27
B28
B29
B30
B31
B32
B33
B34
B35
B36
B37
B38
B39
B40
B41
B42
B43
B44
B45
